Article PMC3386182
Construct, isoform or probe ends are uncertain for at least one entry. Where a protein sequence is shown, tags need not be part of it.

Key:
Experiment in all cases: SPR
[1] = target: T1, Erg307-399 (Ets domain) (Homo sapiens (human)) (UniProt P11308); conditions: SPR (BIAcore 2000, Ni-NTA chip, protein immobilized, DNA 1-3 uM): 10 mM HEPES pH 7.4, 150 mM NaCl, 0.005% P20, 25 C, 10 ul/min, 1:1 Langmuir fit, recombinant protein, residues 307-399
T1 sequence (looked up): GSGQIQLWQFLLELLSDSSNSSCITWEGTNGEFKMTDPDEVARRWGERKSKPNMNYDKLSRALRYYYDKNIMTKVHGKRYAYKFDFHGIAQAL

[2] = target: T2, Erg1-479 (full length Ergp55) (Homo sapiens (human)) (UniProt P11308); conditions: SPR (BIAcore 2000, Ni-NTA chip, protein immobilized, DNA 1-3 uM): 10 mM HEPES pH 7.4, 150 mM NaCl, 0.005% P20, 25 C, 10 ul/min; 1:1 Langmuir fit; recombinant protein; residues 1-479
T2 sequence (looked up): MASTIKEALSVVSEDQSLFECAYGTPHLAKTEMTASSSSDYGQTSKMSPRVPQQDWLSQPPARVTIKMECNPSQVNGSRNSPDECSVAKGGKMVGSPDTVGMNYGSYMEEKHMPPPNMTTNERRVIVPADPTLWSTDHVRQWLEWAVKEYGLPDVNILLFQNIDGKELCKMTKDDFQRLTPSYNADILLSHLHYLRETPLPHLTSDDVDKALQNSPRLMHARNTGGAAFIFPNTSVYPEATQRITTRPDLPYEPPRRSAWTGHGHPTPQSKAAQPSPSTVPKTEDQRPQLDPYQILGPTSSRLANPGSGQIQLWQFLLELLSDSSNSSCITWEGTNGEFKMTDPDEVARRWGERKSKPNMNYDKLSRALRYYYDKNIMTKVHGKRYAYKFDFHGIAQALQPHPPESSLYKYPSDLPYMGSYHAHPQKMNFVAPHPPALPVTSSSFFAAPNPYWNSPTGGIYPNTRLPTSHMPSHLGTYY

[3] = target: T3, Erg112-399 (Homo sapiens (human)) (UniProt P11308); conditions: SPR (BIAcore 2000, Ni-NTA chip, protein immobilized, DNA 1-3 uM): 10 mM HEPES pH 7.4, 150 mM NaCl, 0.005% P20, 25 C, 10 ul/min, 1:1 Langmuir fit, recombinant protein, residues 112-399
T3 sequence (looked up): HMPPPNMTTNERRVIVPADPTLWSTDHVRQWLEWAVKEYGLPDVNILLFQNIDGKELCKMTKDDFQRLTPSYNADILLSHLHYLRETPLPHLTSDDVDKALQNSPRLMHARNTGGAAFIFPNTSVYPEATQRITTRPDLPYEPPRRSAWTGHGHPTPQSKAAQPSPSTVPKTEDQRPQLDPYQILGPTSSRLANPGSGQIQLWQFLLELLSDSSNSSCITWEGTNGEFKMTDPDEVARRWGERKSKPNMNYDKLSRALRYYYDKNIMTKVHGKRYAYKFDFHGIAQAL

[4] = target: T4, Erg1-399 (Homo sapiens (human)) (UniProt P11308); conditions: SPR (BIAcore 2000, Ni-NTA chip, protein immobilized, DNA 1-3 uM): 10 mM HEPES pH 7.4, 150 mM NaCl, 0.005% P20, 25 C, 10 ul/min; 1:1 Langmuir fit; recombinant protein; residues 1-399
T4 sequence (looked up): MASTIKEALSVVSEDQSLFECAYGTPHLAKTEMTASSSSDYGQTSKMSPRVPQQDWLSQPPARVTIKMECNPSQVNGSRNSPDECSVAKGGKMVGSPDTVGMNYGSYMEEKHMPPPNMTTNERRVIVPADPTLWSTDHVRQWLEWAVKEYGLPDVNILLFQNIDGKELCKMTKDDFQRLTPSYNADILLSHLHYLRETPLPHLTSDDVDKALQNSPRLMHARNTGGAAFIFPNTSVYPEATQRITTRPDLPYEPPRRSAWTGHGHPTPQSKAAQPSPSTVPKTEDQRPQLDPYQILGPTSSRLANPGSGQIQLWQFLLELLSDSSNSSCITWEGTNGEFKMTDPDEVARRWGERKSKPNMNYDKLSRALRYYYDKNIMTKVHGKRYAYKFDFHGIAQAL

Row | Sequence | Kd ([1]; Discussion gives 0.4 uM) | Kd [2] | Kd ([3]; Discussion gives 37 uM) | Kd [4] | Kd [1] | Kd [3]
1 | GACAGGATGTG (double strand) [cfos promoter DNA] | 450 nM | 232000 nM | 38000 nM | 196000 nM | – | –
2 | TACCGGAAGT (double strand) [E74 promoter DNA] | – | 704 nM | – | 217 nM | 65 nM | 115 nM
